The supplement of paper PMC11438910
Some of the results follow. The signal is at background level for most entries.

What was measured:
Test in all cases: fluorescence intensity of antibody binding to polysaccharide-coupled beads; higher = stronger binding
[1] = target: pneumococcal polysaccharide Pn9N
Protocol: (§1)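 Recombinant rhesus-murine chimeric IgG1 antibodies were tested against antigen-coupled MagPlex beads in a 96-plex Luminex direct immunoassay (dLIA). The beads carried pneumococcal capsular polysaccharides of 93 serotypes plus C-polysaccharides. Antibody was added at 0.1–12,500 ng/mL for 1 h, then PE anti-mouse IgG, and net MFI was read on a Bio-Plex 3D. Only the rhesus variable regions are printed; constant regions are murine IgG1/kappa/lambda, and the signal peptide is MGWSCIILFLVATATGVHS.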

[2] = target: pneumococcal polysaccharide Pn9V
Protocol: as §1

[3] = target: pneumococcal polysaccharide C-Poly-1
Protocol: as §1

[4] = target: pneumococcal polysaccharide C-Poly-2
Protocol: as §1

[5] = target: pneumococcal polysaccharide Pn1
Protocol: as §1

[6] = target: pneumococcal polysaccharide Pn10A
Protocol: as §1

[7] = target: pneumococcal polysaccharide Pn10B
Protocol: as §1

[8] = target: pneumococcal polysaccharide Pn10C
Protocol: as §1

[9] = target: pneumococcal polysaccharide Pn10F
Protocol: as §1

[10] = target: pneumococcal polysaccharide Pn11A
Protocol: as §1

[11] = target: pneumococcal polysaccharide Pn11B
Protocol: as §1

[12] = target: pneumococcal polysaccharide Pn11C
Protocol: as §1

[13] = target: pneumococcal polysaccharide Pn11D
Protocol: as §1

[14] = target: pneumococcal polysaccharide Pn11F
Protocol: as §1

[15] = target: pneumococcal polysaccharide Pn12A
Protocol: as §1

[16] = target: pneumococcal polysaccharide Pn12B
Protocol: as §1

[17] = target: pneumococcal polysaccharide Pn12F
Protocol: as §1

[18] = target: pneumococcal polysaccharide Pn13
Protocol: as §1

[19] = target: pneumococcal polysaccharide Pn14
Protocol: as §1

[20] = target: pneumococcal polysaccharide Pn15A
Protocol: as §1

[21] = target: pneumococcal polysaccharide Pn15B
Protocol: as §1

[22] = antibody concentration 2337.65 ng/mL
[23] = antibody concentration 12500 ng/mL
[24] = antibody concentration 0.1 ng/mL
[25] = antibody concentration 0.534724 ng/mL
[26] = antibody concentration 2.8593 ng/mL
[27] = antibody concentration 15.2894 ng/mL
[28] = antibody concentration 81.7561 ng/mL
[29] = antibody concentration 437.17 ng/mL

B1: 4-127.3 (protein)
chain 1: QVQLQESGPGLVKPSETLSLTCAVSGYSISSGYGWSWIRQPPGKGLEWIGYIGGSSGSTNYNPSLKSRVTVSKDTSKNQFSLKLSSVTAADTAVYYCARADYCTSTTCYGPNRFDVWGPGVLVTVSS
chain 2: QAAPTQSPSVSGSAGQSVTISCTGSSSDIGYYNGVSWYQHHPGKAPKLMIYEVSKRPSGVSNRFSGSKSGNTASLTISGLQAADEADYFCSSYAGSGTYIFGAGTRLTVL
fluorescence intensity [1, 22]: 19 MFI
fluorescence intensity [1, 23]: 31.8 MFI
fluorescence intensity [2, 24]: 15.5 MFI
fluorescence intensity [2, 25]: 16.2 MFI
fluorescence intensity [2, 26]: 16.5 MFI
fluorescence intensity [2, 27]: 16 MFI
fluorescence intensity [2, 28]: 16.5 MFI
fluorescence intensity [2, 29]: 16.5 MFI
fluorescence intensity [2, 22]: 17 MFI
fluorescence intensity [2, 23]: 24.5 MFI

B2: 4-99.4 (protein)
chain 1: QVQLQESGPGLVKPSETLSLTCAVSGYSISSAYFWGWIRQPPGKGLEYIGYISGEGGKSYYNPSLMSRVTISKDTSKNQFSLKLNTVTAADTAVYYCARRAILVGFDLWGQGVLVTVSS
chain 2: QAAPTQPPSVSGSPGQSVTISCTGSNSDIGYYNAVSWYQQHPGKAPKLMIYEVSKRPSGVSDRLTGSKSGNTASLTISGLQAEDEADYYCSSYAGSNTYIFGTGTRLTVL
fluorescence intensity [3, 24]: 27 MFI
fluorescence intensity [3, 25]: 27 MFI
fluorescence intensity [3, 26]: 27.5 MFI
fluorescence intensity [3, 27]: 27 MFI
fluorescence intensity [3, 28]: 27.8 MFI
fluorescence intensity [3, 29]: 27 MFI
fluorescence intensity [3, 22]: 33 MFI
fluorescence intensity [3, 23]: 133 MFI
fluorescence intensity [4, 24]: 21 MFI
fluorescence intensity [4, 25]: 21.5 MFI
fluorescence intensity [4, 26]: 22 MFI
fluorescence intensity [4, 27]: 22 MFI
fluorescence intensity [4, 28]: 23 MFI
fluorescence intensity [4, 29]: 23 MFI
fluorescence intensity [4, 22]: 29 MFI
fluorescence intensity [4, 23]: 111 MFI
fluorescence intensity [5, 24]: 14 MFI
fluorescence intensity [5, 25]: 14 MFI
fluorescence intensity [5, 26]: 13.5 MFI
fluorescence intensity [5, 27]: 14.5 MFI
fluorescence intensity [5, 28]: 14 MFI
fluorescence intensity [5, 29]: 15.5 MFI
fluorescence intensity [5, 22]: 17.5 MFI
fluorescence intensity [5, 23]: 36.5 MFI
fluorescence intensity [6, 24]: 27.5 MFI
fluorescence intensity [6, 25]: 26.5 MFI
fluorescence intensity [6, 26]: 27.5 MFI
fluorescence intensity [6, 27]: 26.5 MFI
fluorescence intensity [6, 28]: 27.5 MFI
fluorescence intensity [6, 29]: 27.5 MFI
fluorescence intensity [6, 22]: 29 MFI
fluorescence intensity [6, 23]: 39 MFI
fluorescence intensity [7, 24]: 24.5 MFI
fluorescence intensity [7, 25]: 24.5 MFI
fluorescence intensity [7, 26]: 24.5 MFI
fluorescence intensity [7, 27]: 22.5 MFI
fluorescence intensity [7, 28]: 25 MFI
fluorescence intensity [7, 29]: 27 MFI
fluorescence intensity [7, 22]: 27.5 MFI
fluorescence intensity [7, 23]: 28.5 MFI
fluorescence intensity [8, 24]: 17.5 MFI
fluorescence intensity [8, 25]: 16.5 MFI
fluorescence intensity [8, 26]: 17 MFI
fluorescence intensity [8, 27]: 17 MFI
fluorescence intensity [8, 28]: 16.5 MFI
fluorescence intensity [8, 29]: 17.5 MFI
fluorescence intensity [8, 22]: 18 MFI
fluorescence intensity [8, 23]: 21.5 MFI
fluorescence intensity [9, 24]: 20.5 MFI
fluorescence intensity [9, 25]: 20.5 MFI
fluorescence intensity [9, 26]: 19.2 MFI
fluorescence intensity [9, 27]: 21 MFI
fluorescence intensity [9, 28]: 20.5 MFI
fluorescence intensity [9, 29]: 21.5 MFI
fluorescence intensity [9, 22]: 20 MFI
fluorescence intensity [9, 23]: 23.5 MFI
fluorescence intensity [10, 24]: 31.8 MFI
fluorescence intensity [10, 25]: 29.8 MFI
fluorescence intensity [10, 26]: 31.5 MFI
fluorescence intensity [10, 27]: 29 MFI
fluorescence intensity [10, 28]: 30.5 MFI
fluorescence intensity [10, 29]: 33 MFI
fluorescence intensity [10, 22]: 34.5 MFI
fluorescence intensity [10, 23]: 52.5 MFI
fluorescence intensity [11, 24]: 26.5 MFI
fluorescence intensity [11, 25]: 27.5 MFI
fluorescence intensity [11, 26]: 25.5 MFI
fluorescence intensity [11, 27]: 25.5 MFI
fluorescence intensity [11, 28]: 27.5 MFI
fluorescence intensity [11, 29]: 28.2 MFI
fluorescence intensity [11, 22]: 33.5 MFI
fluorescence intensity [11, 23]: 37.5 MFI
fluorescence intensity [12, 24]: 22 MFI
fluorescence intensity [12, 25]: 21.8 MFI
fluorescence intensity [12, 26]: 21 MFI
fluorescence intensity [12, 27]: 22.5 MFI
fluorescence intensity [12, 28]: 21.5 MFI
fluorescence intensity [12, 29]: 21.8 MFI
fluorescence intensity [12, 22]: 28.5 MFI
fluorescence intensity [12, 23]: 86.8 MFI
fluorescence intensity [13, 24]: 22.5 MFI
fluorescence intensity [13, 25]: 24 MFI
fluorescence intensity [13, 26]: 23.5 MFI
fluorescence intensity [13, 27]: 23 MFI
fluorescence intensity [13, 28]: 23 MFI
fluorescence intensity [13, 29]: 23 MFI
fluorescence intensity [13, 22]: 26.5 MFI
fluorescence intensity [13, 23]: 52.5 MFI
fluorescence intensity [14, 24]: 16 MFI
fluorescence intensity [14, 25]: 15 MFI
fluorescence intensity [14, 26]: 14 MFI
fluorescence intensity [14, 27]: 14.2 MFI
fluorescence intensity [14, 28]: 15 MFI
fluorescence intensity [14, 29]: 15.8 MFI
fluorescence intensity [14, 22]: 16.2 MFI
fluorescence intensity [14, 23]: 23 MFI
fluorescence intensity [15, 24]: 15.5 MFI
fluorescence intensity [15, 25]: 16.5 MFI
fluorescence intensity [15, 26]: 14.5 MFI
fluorescence intensity [15, 27]: 13.8 MFI
fluorescence intensity [15, 28]: 14.5 MFI
fluorescence intensity [15, 29]: 16 MFI
fluorescence intensity [15, 22]: 17.5 MFI
fluorescence intensity [15, 23]: 29.5 MFI
fluorescence intensity [16, 24]: 16 MFI
fluorescence intensity [16, 25]: 15.5 MFI
fluorescence intensity [16, 26]: 15.5 MFI
fluorescence intensity [16, 27]: 16 MFI
fluorescence intensity [16, 28]: 16.8 MFI
fluorescence intensity [16, 29]: 17 MFI
fluorescence intensity [16, 22]: 18 MFI
fluorescence intensity [16, 23]: 30 MFI
fluorescence intensity [17, 24]: 20 MFI
fluorescence intensity [17, 25]: 19 MFI
fluorescence intensity [17, 26]: 21 MFI
fluorescence intensity [17, 27]: 18.5 MFI
fluorescence intensity [17, 28]: 17.5 MFI
fluorescence intensity [17, 29]: 19.5 MFI
fluorescence intensity [17, 22]: 22 MFI
fluorescence intensity [17, 23]: 42 MFI
fluorescence intensity [18, 24]: 20.2 MFI
fluorescence intensity [18, 25]: 19 MFI
fluorescence intensity [18, 26]: 19 MFI
fluorescence intensity [18, 27]: 18.8 MFI
fluorescence intensity [18, 28]: 18.5 MFI
fluorescence intensity [18, 29]: 19 MFI
fluorescence intensity [18, 22]: 21 MFI
fluorescence intensity [18, 23]: 31 MFI
fluorescence intensity [19, 24]: 15 MFI
fluorescence intensity [19, 25]: 14 MFI
fluorescence intensity [19, 26]: 15.5 MFI
fluorescence intensity [19, 27]: 15.8 MFI
fluorescence intensity [19, 28]: 16 MFI
fluorescence intensity [19, 29]: 16.5 MFI
fluorescence intensity [19, 22]: 20 MFI
fluorescence intensity [19, 23]: 99.8 MFI
fluorescence intensity [20, 24]: 13.5 MFI
fluorescence intensity [20, 25]: 12.5 MFI
fluorescence intensity [20, 26]: 12.5 MFI
fluorescence intensity [20, 27]: 13.5 MFI
fluorescence intensity [20, 28]: 13 MFI
fluorescence intensity [20, 29]: 13.5 MFI
fluorescence intensity [20, 22]: 15 MFI
fluorescence intensity [20, 23]: 15.5 MFI
fluorescence intensity [21, 24]: 20.5 MFI
fluorescence intensity [21, 25]: 20 MFI
fluorescence intensity [21, 26]: 20.5 MFI
fluorescence intensity [21, 27]: 20 MFI
fluorescence intensity [21, 28]: 19.5 MFI
fluorescence intensity [21, 29]: 21.5 MFI
